Results: patent US20050037963A1
These are yes or no findings as the source states them, for the method shown. In cells and extracts the contact can be indirect. Some entries that bind do so weakly or less than the wild type. One block for each substance: values may come before it.

Amino acid sequences for entries named in this document (tags omitted). A change or cut given only in a name is not applied to a line headed by its entry. Chains listed by the source or under a name are the forms on record and can include a tag or linker. Residues count along the entry.
UniProt P34152, residues 2-1052: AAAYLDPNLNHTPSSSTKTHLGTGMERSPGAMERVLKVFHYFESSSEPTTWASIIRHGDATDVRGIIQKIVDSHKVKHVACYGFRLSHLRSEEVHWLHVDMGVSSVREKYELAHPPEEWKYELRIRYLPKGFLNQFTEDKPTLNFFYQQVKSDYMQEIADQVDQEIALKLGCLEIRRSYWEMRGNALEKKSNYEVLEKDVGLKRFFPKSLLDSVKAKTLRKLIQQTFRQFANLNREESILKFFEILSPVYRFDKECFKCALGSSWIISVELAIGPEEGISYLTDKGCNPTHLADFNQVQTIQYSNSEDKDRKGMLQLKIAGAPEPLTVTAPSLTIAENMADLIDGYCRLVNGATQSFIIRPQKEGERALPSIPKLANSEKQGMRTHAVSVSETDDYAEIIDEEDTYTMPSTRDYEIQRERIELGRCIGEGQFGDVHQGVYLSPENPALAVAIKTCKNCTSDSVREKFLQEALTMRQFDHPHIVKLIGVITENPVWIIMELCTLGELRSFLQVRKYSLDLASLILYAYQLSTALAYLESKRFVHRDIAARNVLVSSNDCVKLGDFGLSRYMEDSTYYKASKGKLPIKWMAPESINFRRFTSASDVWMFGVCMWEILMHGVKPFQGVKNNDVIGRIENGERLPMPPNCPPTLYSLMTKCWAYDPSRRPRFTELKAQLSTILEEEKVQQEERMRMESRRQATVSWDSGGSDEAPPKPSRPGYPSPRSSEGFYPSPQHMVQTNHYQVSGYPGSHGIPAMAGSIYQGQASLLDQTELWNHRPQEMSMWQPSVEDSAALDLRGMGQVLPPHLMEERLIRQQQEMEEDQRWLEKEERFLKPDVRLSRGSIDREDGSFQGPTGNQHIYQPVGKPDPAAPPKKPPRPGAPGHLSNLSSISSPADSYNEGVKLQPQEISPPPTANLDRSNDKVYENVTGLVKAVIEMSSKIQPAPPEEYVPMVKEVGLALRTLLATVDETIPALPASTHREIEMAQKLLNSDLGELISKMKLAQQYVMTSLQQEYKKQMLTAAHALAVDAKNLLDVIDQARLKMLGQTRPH
UniProt Q05397, residues 2-1052: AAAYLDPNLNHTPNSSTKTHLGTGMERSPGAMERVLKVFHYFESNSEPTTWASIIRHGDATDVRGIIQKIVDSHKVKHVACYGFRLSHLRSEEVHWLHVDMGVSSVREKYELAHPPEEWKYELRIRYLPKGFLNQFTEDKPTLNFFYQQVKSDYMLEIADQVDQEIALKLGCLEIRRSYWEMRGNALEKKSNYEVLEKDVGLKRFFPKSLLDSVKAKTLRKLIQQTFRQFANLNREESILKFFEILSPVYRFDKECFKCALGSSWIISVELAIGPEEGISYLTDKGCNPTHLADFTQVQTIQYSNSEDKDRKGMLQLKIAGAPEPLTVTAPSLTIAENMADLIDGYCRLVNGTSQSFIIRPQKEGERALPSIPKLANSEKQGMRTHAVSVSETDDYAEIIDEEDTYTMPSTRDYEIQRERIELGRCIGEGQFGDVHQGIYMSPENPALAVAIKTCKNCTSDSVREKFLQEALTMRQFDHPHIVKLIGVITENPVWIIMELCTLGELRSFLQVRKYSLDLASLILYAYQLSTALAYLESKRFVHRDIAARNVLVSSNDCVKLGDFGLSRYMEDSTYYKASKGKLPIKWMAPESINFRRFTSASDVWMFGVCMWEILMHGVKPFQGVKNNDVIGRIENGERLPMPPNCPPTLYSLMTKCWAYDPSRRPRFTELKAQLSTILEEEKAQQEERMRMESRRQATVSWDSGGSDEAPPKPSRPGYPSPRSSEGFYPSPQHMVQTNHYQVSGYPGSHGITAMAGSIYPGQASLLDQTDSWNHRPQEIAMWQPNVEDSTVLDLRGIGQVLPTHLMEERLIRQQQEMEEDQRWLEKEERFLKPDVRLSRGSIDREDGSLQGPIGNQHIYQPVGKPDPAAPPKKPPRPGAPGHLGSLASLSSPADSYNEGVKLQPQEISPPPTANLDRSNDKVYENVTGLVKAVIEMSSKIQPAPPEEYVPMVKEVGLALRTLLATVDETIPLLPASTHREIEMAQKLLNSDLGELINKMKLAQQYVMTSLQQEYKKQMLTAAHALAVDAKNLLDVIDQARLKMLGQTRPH
UniProt O35346, residues 2-1055: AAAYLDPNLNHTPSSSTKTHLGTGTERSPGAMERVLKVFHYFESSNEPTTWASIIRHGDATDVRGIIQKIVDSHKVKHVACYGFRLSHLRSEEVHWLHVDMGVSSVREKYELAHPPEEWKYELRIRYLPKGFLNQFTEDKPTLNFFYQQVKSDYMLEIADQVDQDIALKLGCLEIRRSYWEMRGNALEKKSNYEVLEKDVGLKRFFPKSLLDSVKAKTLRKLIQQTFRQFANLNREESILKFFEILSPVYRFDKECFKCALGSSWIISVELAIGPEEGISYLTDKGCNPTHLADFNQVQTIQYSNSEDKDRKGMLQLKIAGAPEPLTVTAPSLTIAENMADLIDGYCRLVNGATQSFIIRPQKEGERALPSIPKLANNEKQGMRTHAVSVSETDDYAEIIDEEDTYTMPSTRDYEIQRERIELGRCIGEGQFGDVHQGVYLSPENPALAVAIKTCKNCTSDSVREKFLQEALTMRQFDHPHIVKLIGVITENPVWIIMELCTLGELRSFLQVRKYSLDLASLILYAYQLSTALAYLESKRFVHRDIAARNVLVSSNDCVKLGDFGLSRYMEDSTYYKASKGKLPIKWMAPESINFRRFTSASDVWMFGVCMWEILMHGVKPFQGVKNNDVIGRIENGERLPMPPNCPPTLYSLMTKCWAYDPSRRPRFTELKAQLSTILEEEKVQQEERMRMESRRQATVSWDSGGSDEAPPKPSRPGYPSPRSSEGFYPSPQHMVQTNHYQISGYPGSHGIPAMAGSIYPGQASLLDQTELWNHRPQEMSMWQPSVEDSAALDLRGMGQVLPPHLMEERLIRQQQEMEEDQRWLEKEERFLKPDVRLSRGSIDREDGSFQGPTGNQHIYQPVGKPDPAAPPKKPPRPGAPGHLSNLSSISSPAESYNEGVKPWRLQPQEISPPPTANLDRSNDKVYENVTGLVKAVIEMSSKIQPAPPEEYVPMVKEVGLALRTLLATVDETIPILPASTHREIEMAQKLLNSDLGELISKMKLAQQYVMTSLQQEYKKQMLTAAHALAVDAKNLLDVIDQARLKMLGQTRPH
UniProt Q9ESK9: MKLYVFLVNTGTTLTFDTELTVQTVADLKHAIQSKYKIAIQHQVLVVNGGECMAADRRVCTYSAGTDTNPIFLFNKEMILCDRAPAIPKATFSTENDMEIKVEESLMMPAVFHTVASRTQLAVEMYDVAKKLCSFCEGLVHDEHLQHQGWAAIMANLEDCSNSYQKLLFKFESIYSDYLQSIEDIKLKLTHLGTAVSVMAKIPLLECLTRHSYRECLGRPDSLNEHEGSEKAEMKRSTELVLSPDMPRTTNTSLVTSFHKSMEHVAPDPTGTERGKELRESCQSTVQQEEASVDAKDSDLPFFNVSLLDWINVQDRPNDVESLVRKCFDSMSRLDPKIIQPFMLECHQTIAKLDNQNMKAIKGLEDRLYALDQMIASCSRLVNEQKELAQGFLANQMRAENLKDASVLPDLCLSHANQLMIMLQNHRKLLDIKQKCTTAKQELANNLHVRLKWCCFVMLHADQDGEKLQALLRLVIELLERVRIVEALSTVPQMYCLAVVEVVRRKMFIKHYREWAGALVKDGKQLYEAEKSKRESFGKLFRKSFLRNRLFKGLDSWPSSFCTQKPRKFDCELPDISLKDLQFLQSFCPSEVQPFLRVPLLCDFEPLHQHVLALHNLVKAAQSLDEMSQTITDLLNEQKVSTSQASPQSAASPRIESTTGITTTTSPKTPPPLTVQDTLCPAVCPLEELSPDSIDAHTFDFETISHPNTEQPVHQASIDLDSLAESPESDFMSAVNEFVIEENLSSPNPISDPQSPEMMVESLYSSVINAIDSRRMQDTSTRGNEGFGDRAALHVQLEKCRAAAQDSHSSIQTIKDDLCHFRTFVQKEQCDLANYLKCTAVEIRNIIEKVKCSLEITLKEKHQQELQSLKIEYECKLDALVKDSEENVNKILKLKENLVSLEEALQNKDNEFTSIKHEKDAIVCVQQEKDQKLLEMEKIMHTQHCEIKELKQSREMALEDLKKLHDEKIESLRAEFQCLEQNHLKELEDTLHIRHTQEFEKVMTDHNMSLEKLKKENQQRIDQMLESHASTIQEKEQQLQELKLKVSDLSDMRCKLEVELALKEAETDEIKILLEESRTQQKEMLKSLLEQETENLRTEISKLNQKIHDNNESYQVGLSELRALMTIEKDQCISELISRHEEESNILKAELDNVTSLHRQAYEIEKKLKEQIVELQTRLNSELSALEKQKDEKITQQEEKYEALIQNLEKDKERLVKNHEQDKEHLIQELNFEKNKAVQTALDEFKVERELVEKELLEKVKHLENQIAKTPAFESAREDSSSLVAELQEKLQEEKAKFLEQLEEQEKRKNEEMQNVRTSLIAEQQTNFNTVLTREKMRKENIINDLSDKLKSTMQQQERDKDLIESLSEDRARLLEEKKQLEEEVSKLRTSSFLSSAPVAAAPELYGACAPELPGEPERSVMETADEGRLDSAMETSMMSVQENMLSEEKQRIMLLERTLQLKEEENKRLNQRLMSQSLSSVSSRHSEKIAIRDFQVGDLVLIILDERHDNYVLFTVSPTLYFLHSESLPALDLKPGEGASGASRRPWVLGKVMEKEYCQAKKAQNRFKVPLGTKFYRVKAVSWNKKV
endogenous FIP200 of rat aortic smooth muscle cells (D3ZHK4, form named): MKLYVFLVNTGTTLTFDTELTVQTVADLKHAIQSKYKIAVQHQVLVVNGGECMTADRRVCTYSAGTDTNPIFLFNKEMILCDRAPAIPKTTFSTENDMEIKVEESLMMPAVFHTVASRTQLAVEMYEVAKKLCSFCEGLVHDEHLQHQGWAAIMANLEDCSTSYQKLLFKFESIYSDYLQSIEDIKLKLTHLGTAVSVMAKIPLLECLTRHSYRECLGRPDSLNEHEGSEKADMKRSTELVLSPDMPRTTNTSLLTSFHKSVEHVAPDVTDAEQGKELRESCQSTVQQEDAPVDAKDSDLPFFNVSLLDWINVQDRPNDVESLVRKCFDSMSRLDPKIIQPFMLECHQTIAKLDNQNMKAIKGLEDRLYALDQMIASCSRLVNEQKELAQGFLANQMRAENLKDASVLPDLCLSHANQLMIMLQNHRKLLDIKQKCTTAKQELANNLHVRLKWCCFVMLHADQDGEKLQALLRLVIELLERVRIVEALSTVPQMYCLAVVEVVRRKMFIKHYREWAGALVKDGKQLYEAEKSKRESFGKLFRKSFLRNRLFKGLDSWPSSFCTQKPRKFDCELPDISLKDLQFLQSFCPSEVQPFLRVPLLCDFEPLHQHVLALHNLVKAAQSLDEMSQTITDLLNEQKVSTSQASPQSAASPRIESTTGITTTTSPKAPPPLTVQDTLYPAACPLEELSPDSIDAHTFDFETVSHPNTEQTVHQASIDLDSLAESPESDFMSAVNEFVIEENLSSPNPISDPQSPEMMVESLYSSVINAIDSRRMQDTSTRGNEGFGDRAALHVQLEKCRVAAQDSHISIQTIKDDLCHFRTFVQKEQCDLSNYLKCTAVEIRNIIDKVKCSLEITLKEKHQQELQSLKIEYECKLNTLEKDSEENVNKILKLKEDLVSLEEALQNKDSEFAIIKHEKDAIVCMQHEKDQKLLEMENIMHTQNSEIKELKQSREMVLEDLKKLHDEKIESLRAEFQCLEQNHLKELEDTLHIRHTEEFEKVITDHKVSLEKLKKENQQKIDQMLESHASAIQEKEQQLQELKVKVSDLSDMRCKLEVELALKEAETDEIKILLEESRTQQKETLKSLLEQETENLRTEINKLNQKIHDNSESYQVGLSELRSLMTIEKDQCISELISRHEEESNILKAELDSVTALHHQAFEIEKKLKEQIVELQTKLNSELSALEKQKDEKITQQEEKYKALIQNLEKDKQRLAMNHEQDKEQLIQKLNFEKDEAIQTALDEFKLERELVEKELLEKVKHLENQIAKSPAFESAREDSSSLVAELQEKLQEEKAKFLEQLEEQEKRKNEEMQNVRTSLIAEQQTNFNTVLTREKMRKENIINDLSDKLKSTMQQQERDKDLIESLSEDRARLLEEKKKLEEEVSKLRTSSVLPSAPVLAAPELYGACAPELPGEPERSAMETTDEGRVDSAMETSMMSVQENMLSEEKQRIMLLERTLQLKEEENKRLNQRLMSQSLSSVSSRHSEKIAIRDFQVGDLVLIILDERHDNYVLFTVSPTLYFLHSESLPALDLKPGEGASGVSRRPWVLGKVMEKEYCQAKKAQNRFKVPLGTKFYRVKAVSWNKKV

What was measured:
[1] = molecular target: endogenous FAK of NIH 3T3 cells (mouse) (UniProt P34152); experiment: co-immunoprecipitation of endogenous proteins, NIH 3T3 cells
[2] = molecular target: endogenous focal adhesion kinase (FAK) of human cells (human) (UniProt Q05397); experiment: co-immunoprecipitation (anti-FIP200N IP, anti-FAK blot), MDA-MB231 cell lysates
[3] = molecular target: endogenous focal adhesion kinase (FAK) of human cells (human) (UniProt Q05397); experiment: co-immunoprecipitation of endogenous proteins, 293 cells
[4] = molecular target: endogenous focal adhesion kinase (FAK) of human cells (human) (UniProt Q05397); experiment: co-immunoprecipitation of endogenous proteins (anti-FIP200N IP, anti-FAK blot), MDA-MB231 cell lysates
[5] = molecular target: endogenous FAK of rat aortic smooth muscle cells (rat) (UniProt O35346); experiment: co-immunoprecipitation of endogenous proteins, rat aortic smooth muscle cells

binding [1]: binds
Substance: endogenous FIP200 of NIH 3T3 cells (from UniProt Q9ESK9 1-1588)

binding [2]: binds | binding [3]: binds | binding [4]: binds
Substance: endogenous FIP200 (FAK family kinase-interacting protein of 200 kDa) of human cells (from UniProt Q8TDY2 1-1594)

binding [5]: binds
Substance: endogenous FIP200 of rat aortic smooth muscle cells (from UniProt D3ZHK4 1-1588)
